Source: the supplement of paper PMC8728848
This is one part of the list.

Tests used:
Experiment in all cases: glycan array binding signal (z-score within array); higher = stronger binding
Conditions in all cases: glycan notation: IUPAC condensed, linker removed
Fuc(a1-2)[Gal(a1-3)]Gal = target: Fuc(a1-2)[Gal(a1-3)]Gal
Summary of the method: (§1)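 Glycan array binding is given as a within-array Z-score, which can be read as non-binding when negative. The arrays, 3228 of them, came from the Consortium for Functional Glycomics database and were retained only where the protein sequence was available. Z-scores were averaged across arrays of the same protein sequence at different concentrations or buffers and across linkers.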

[1] = target: Fuc(a1-2)[Gal(a1-3)]Gal(b1-3)GlcNAc
Summary of the method: as §1

[2] = target: Fuc(a1-2)[Gal(a1-3)]Gal(b1-3)GlcNAc(b1-2)Man(a1-3)[Fuc(a1-2)[Gal(a1-3)]Gal(b1-3)GlcNAc(b1-2)Man(a1-6)]Man(b1-4)GlcNAc(b1-4)GlcNAc
Summary of the method: as §1

[3] = target: Fuc(a1-2)[Gal(a1-3)]Gal(b1-4)Glc
Summary of the method: as §1

[4] = target: Fuc(a1-2)[Gal(a1-3)]Gal(b1-4)GlcNAc
Summary of the method: as §1

[5] = target: Fuc(a1-2)[Gal(a1-3)]Gal(b1-4)GlcNAc(b1-2)Man(a1-3)[Fuc(a1-2)[Gal(a1-3)]Gal(b1-4)GlcNAc(b1-2)Man(a1-6)]Man(b1-4)GlcNAc(b1-4)GlcNAc
Summary of the method: as §1

[6] = target: Fuc(a1-2)[Gal(a1-3)]Gal(b1-4)[Fuc(a1-3)]GlcNAc
Summary of the method: as §1

[7] = target: Fuc(a1-2)[Gal(a1-4)]Gal(b1-4)GlcNAc
Summary of the method: as §1

[8] = target: Fuc(a1-2)[GalNAc(a1-3)]Gal
Summary of the method: as §1

[9] = target: Fuc(a1-2)[GalNAc(a1-3)]Gal(b1-3)GalNAc(a1-3)[Fuc(a1-2)]Gal(b1-4)GlcNAc
Summary of the method: as §1

[10] = target: Fuc(a1-2)[GalNAc(a1-3)]Gal(b1-3)GlcNAc
Summary of the method: as §1

[11] = target: Fuc(a1-2)[GalNAc(a1-3)]Gal(b1-3)GlcNAc(b1-2)Man(a1-3)[Fuc(a1-2)[GalNAc(a1-3)]Gal(b1-3)GlcNAc(b1-2)Man(a1-6)]Man(b1-4)GlcNAc(b1-4)GlcNAc
Summary of the method: as §1

[12] = target: Fuc(a1-2)[GalNAc(a1-3)]Gal(b1-4)Glc
Summary of the method: as §1

[13] = target: Fuc(a1-2)[GalNAc(a1-3)]Gal(b1-4)GlcNAc
Summary of the method: as §1

[14] = target: Fuc(a1-2)[GalNAc(a1-3)]Gal(b1-4)GlcNAc(b1-2)Man(a1-3)[Fuc(a1-2)[GalNAc(a1-3)]Gal(b1-4)GlcNAc(b1-2)Man(a1-6)]Man(b1-4)GlcNAc(b1-4)GlcNAc
Summary of the method: as §1

[15] = target: Fuc(a1-2)[GalNAc(a1-3)]Gal(b1-4)GlcNAc(b1-3)Gal(b1-4)GlcNAc
Summary of the method: as §1

[16] = target: Fuc(a1-2)[GalNAc(a1-3)]Gal(b1-4)GlcNAc(b1-3)Gal(b1-4)GlcNAc(b1-3)Gal(b1-4)GlcNAc
Summary of the method: as §1

[17] = target: Fuc(a1-2)[GalNAc(a1-3)]Gal(b1-4)[Fuc(a1-3)]GlcNAc
Summary of the method: as §1

[18] = target: Fuc(a1-2)[GalNAc(a1-4)]Gal(b1-4)GlcNAc
Summary of the method: as §1

[19] = target: Fuc(a1-2)[GalNAc(b1-3)]Gal
Summary of the method: as §1

Fuc(a1-3)GlcNAc = target: Fuc(a1-3)GlcNAc
Summary of the method: as §1

[20] = target: Fuc(a1-3)[Gal(b1-4)]Glc6S
Summary of the method: as §1

[21] = target: Fuc(a1-3)[Gal(b1-4)]GlcNAc
Summary of the method: as §1

[22] = target: Fuc(a1-3)[Gal(b1-4)]GlcNAc(b1-2)Man(a1-3)[Fuc(a1-3)[Gal(b1-4)]GlcNAc(b1-2)Man(a1-6)]Man(b1-4)GlcNAc(b1-4)GlcNAc
Summary of the method: as §1

[23] = target: Fuc(a1-3)[Gal(b1-4)]GlcNAc(b1-3)Gal(b1-3)[Fuc(a1-4)]GlcNAc
Summary of the method: as §1

[24] = target: Fuc(a1-3)[Gal(b1-4)]GlcNAc(b1-3)GalNAc
Summary of the method: as §1

[25] = target: Fuc(a1-3)[Gal(b1-4)]GlcNAc(b1-4)Gal(b1-4)[Fuc(a1-3)]GlcNAc
Summary of the method: as §1

[26] = target: Fuc(a1-3)[Gal(b1-4)]GlcNAc(b1-4)Gal(b1-4)[Fuc(a1-3)]GlcNAc(b1-4)Gal(b1-4)[Fuc(a1-3)]GlcNAc
Summary of the method: as §1

[27] = target: Fuc(a1-3)[Gal(b1-4)]GlcNAc(b1-6)[Gal(b1-3)GlcNAc(b1-3)]Gal(b1-4)Glc
Summary of the method: as §1

[28] = target: Fuc(a1-3)[Gal(b1-4)]GlcNAc6S
Summary of the method: as §1

[29] = target: Fuc(a1-3)[Gal3S(b1-4)]GlcNAc
Summary of the method: as §1

[30] = target: Fuc(a1-3)[Gal3S(b1-4)]GlcNAc6S
Summary of the method: as §1

[31] = target: Fuc(a1-3)[GalNAc(b1-4)]GlcNAc
Summary of the method: as §1

Fuc(a1-4)GlcNAc = target: Fuc(a1-4)GlcNAc
Summary of the method: as §1

Fuc(b1-3)GlcNAc = target: Fuc(b1-3)GlcNAc
Summary of the method: as §1

Gal(a1-2)Gal = target: Gal(a1-2)Gal
Summary of the method: as §1

Gal(a1-3)Gal = target: Gal(a1-3)Gal
Summary of the method: as §1

B1: PEB1 (Campylobacter jejuni), Q0P9X8 (protein)
chain: MVFRKSLLKLAVFALGACVAFSNANAAEGKLESIKSKGQLIVGVKNDVPHYALLDQATGEIKGFEVDVAKLLAKSILGDDKKIKLVAVNAKTRGPLLDNGSVDAVIATFTITPERKRIYNFSEPYYQDAIGLLVLKEKKYKSLADMKGANIGVAQAATTKKAIGEAAKKIGIDVKFSEFPDYPSIKAALDAKRVDAFSVDKSILLGYVDDKSEILPDSFEPQSYGIVTKKDDPAFAKYVDDFVKEHKNEIDALAKKWGL
Question: What does the source list for B1?
Answer: glycan array binding signal (z-score) (Fuc(a1-2)[Gal(a1-3)]Gal): -0.027; glycan array binding signal (z-score) [1]: -0.148; glycan array binding signal (z-score) [2]: -0.314; glycan array binding signal (z-score) [3]: -0.633; glycan array binding signal (z-score) [4]: -0.033; glycan array binding signal (z-score) [5]: 0.417; glycan array binding signal (z-score) [6]: 2.02; glycan array binding signal (z-score) [7]: -1.44; glycan array binding signal (z-score) [8]: 0.441; glycan array binding signal (z-score) [9]: -1.22; glycan array binding signal (z-score) [10]: 0.489; glycan array binding signal (z-score) [11]: 0.517; glycan array binding signal (z-score) [12]: -0.967; glycan array binding signal (z-score) [13]: -0.117; glycan array binding signal (z-score) [14]: 1.37; glycan array binding signal (z-score) [15]: 0.63; glycan array binding signal (z-score) [16]: -1.11; glycan array binding signal (z-score) [17]: -0.141; glycan array binding signal (z-score) [18]: -0.592; glycan array binding signal (z-score) [19]: -0.799; glycan array binding signal (z-score) (Fuc(a1-3)GlcNAc): -0.959; glycan array binding signal (z-score) [20]: 0.801; glycan array binding signal (z-score) [21]: -0.112; glycan array binding signal (z-score) [22]: -0.842; glycan array binding signal (z-score) [23]: 0.704; glycan array binding signal (z-score) [24]: -0.283; glycan array binding signal (z-score) [25]: 0.229; glycan array binding signal (z-score) [26]: -1.26; glycan array binding signal (z-score) [27]: -0.056; glycan array binding signal (z-score) [28]: -0.15; glycan array binding signal (z-score) [29]: -0.081; glycan array binding signal (z-score) [30]: 0.282; glycan array binding signal (z-score) [31]: -0.9; glycan array binding signal (z-score) (Fuc(a1-4)GlcNAc): -0.227; glycan array binding signal (z-score) (Fuc(b1-3)GlcNAc): -1.36; glycan array binding signal (z-score) (Gal(a1-2)Gal): 0.338; glycan array binding signal (z-score) (Gal(a1-3)Gal): 0.007
